Values of other authors as cited in publication PMC3747594 (ACS Chemical Biology, 2013).
pIC50: −log10 of the molar value.

Test system: K2P2.1 (TREK-1)
Details: cited from earlier work

With CNCCC(Oc1ccc(C(F)(F)F)cc1)c1ccccc1 (stereo not shown) [fluoxetine] as the molecule, how does the pIC50 read?
The pIC50 was roughly 5.00.
